{
  "source": "patent US20080113908A1",
  "about": "“Use of CRF receptor agonists for the treatment or Prophylaxis of diseases, for example Neurodegenerative diseases” (SmithKline Beecham plc, priority 2000, published 2008)",
  "test_system": "GSK-3β",
  "test": "Western blot of serine-9-phosphorylated GSK-3β (FIG. 5)",
  "type": "cell-based, rat",
  "details": "2 hours, CRF 10 nM, FSK 30 μM",
  "description": "It was thought that CRF receptor agonists might interact with the PI 3-kinase signalling pathway and exert their neuroprotective effect by phosphorylating and inhibiting the protein GSK-3β,which is pro-apoptotic (M. Pap and G. M. Cooper, J. Biol. Chem., 273(32), 19929-19932, 1998; and M. Hetman et al. J. Neurosci., 1st Apr. 2000, 20(7), 2567-2574; discussed hereinabove). In order to confirm this, the level of GSK-3β phosphorylated at serine-9 (e.g. see D. A. E. Cross, Nature, 378, 785-789, 1995) in control cultures of cerebellar granule neurones was measured using Western blots, and compared to the level of phospho-GSK-3β in the presence of CRF as a model CRF receptor agonist and/or in the presence of the PI 3-kinase inhibitor LY 294002. In order to determine whether elevation of cAMP was involved in any effect, the level of phospho-GSK-3β in cultures in the presence of the known cAMP-elevating agent forskolin (FSK, obtainable e.g. from Calbiochem.) with or without LY 294002 present was also measured. The forskolin acts as a benchmark for cAMP-related effects.\nThe method used was as follows. […]\nPhosphorylation of GSK-3β was detected using an antibody to serine-9-phosphorylated GSK-3β (anti-phospho-GSK-3β (Ser9)) available as catalogue no. […]",
  "note": "At least one compound was matched to its structure with a doubt left.",
  "data": [
    {"smiles": "C=C[C@@]1(C)CC(=O)[C@]2(O)[C@@]3(C)[C@@H](O)CCC(C)(C)[C@@H]3[C@H](O)[C@H](OC(C)=O)[C@@]2(C)O1", "note": "[FSK, forskolin]", "values": [
      {"measurement": "phospho-GSK-3β level in the presence of LY 294002", "setting": "added together with LY 294002 75 μM", "value": "not affected by LY 294002"},
      {"measurement": "phospho-GSK-3β level compared to control CN", "setting": "compound alone, LY 294002 75 μM", "value": "raised higher than for CRF"}
    ]}
  ]
}
